# Results: US7141604B2, “Citalopram for the treatment of elevated blood pressure” (Egis Gyógyszergyár Rt., priority 2002, dated 2006)
# At least one compound was matched to its structure with a doubt left.
# How the values were obtained:
# Type in all cases: in vivo
# [1] = tested on: patients having unstable high blood pressure; details: oral 5/10/20 mg/day over three weeks, end of treatment
# Protocol: In the study 13 patients having unstable high blood pressure were used who suffered from different anxiety disorders and depression.
# Out of these patients 3 suffered from panic disorder, 1 from obsessive compulsive disorder and 9 from panic disorder with depression. On the beginning of treatment with the following antidepressants the patients were normotensive.
# The patients were treated orally with 40 mg/day of paroxetine, or 100 mg/day of sertraline, or 20 mg/day of fluoxetine, or 150 mg/day of fluvoxamine. After 6 months 60% of the patients and after a period of 12–30 months 40% of the patients became hypertensive beside the normalization of their psychiatric state.
# Thereafter the above mentioned antidepressants were substituted with citalopram. The oral dose of citalopram was 5 mg/day on the first week, 10 mg/day on the second week and 20 mg/day on the third week.
# [2] = tested on: patients suffering from anxiety or affective disorders; experiment: Study V: depressed patients who have parents suffering from high blood pressure or stroke; details: patients with at least one parent hypertensive or with stroke
# [3] = tested on: patients suffering from panic disorders and/or affective disturbances; experiment: Study IV: patients with panic disorders and/or affective disturbances with at least one hypertensive episode; details: 25 patients, oral citalopram 5/10/20 mg/day over three weeks
smiles,measurement,setting,value
"CN(C)CCCC1(c2ccc(F)cc2)OCc2cc(C#N)ccc21 (centres unmarked) [citalopram, 1-(3-dimethylamino-propyl)-1-(4-fluoro-phenyl)-1,3-dihydro-5-isobenzofurance-carbonitrile]",blood pressure outcome after substitution of antidepressants with citalopram,[1],became normotensive
same,symptoms of anxiety and depression / responsiveness,[2],symptoms of anxiety and depression disappeared
same,blood pressure,[2]; oral citalopram,remained normal for a longer period of time
same,blood pressure,[3],remained in the normal range
same,response to treatment (syndromes of panic and affective disorders),[3],responded completely
